The assay addresses hemoglobin subunit beta (HBB) (UniProt P68871). As to the kind of experiment: affinity purification with mass spectrometry; IP-mass assay in HBB-overexpressing AC16 cells; HBB precipitated alone or with aconitine (AC); silver staining and mass spectrometry.

The chains behind the UniProt entries cited, without tags or fusion partners.
UniProt P68871: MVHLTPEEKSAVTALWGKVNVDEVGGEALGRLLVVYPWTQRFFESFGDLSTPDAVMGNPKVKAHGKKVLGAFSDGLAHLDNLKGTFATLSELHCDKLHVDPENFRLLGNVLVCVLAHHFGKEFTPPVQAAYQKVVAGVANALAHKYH

No constants are given. Whether binding was seen depends on the method and setting. Binding seen in cells or lysates may run through a third protein. A yes stands for co-enrichment or nearness to the bait. Other partners may have been found.

B1: ABHD5 (protein, UniProt Q8WTS1 1-349)
chain: MAAEEEEVDSADTGERSGWLTGWLPTWCPTSISHLKEAEEKMLKCVPCTYKKEPVRISNGNKIWTLKFSHNISNKTPLVLLHGFGGGLGLWALNFGDLCTNRPVYAFDLLGFGRSSRPRFDSDAEEVENQFVESIEEWRCALGLDKMILLGHNLGGFLAAAYSLKYPSRVNHLILVEPWGFPERPDLADQDRPIPVWIRALGAALTPFNPLAGLRIAGPFGLSLVQRLRPDFKRKYSSMFEDDTVTEYIYHCNVQTPSGETAFKNMTIPYGWAKRPMLQRIGKMHPDIPVSVIFGARSCIDGNSGTSIQSLRPHSYVKTIAILGAGHYVYADQPEEFNQKVKEICDTVD
B1: the binding result was “binds”.

The record behind these values is paper PMC11130212.
